Consider four sequences from paper PMC9516604.

Protein sequences, listed by entry. Tags and fused reporters are not part of them. Lines headed by an entry give the natural chain unless they say otherwise; changes in a name come on top.
UniProt Q08J23, whole entry: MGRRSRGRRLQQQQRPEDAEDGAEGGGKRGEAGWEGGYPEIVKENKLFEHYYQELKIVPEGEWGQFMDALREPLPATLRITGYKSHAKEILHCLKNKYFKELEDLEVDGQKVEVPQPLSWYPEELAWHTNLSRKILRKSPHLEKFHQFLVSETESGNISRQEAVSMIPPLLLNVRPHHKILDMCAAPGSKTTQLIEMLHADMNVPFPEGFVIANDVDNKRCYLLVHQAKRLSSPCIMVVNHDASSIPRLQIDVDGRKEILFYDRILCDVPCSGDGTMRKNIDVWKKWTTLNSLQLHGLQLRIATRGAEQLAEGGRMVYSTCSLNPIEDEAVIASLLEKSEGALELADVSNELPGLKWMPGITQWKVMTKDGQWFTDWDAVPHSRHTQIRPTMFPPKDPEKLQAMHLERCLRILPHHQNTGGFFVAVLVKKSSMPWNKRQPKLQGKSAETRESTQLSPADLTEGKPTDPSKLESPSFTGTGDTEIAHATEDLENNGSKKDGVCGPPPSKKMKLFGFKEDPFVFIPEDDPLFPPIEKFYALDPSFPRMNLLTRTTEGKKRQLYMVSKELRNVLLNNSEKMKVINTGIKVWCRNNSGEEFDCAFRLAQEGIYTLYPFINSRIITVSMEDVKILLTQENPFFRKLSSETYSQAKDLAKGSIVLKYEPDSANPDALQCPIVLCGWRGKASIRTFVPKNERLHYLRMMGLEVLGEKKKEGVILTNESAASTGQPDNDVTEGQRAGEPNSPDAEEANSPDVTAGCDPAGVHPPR
UniProt P67809: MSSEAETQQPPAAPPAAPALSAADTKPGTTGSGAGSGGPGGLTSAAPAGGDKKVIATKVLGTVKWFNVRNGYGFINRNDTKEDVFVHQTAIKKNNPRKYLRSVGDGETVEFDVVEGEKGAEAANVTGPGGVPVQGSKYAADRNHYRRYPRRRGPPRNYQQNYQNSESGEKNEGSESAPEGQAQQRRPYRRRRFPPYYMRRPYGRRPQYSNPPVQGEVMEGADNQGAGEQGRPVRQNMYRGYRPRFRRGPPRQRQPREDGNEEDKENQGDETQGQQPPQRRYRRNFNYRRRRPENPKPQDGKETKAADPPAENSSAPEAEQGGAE

One data set deals with NSUN2 (UniProt Q08J23). In words: pull-down. Conditions: pull-down: RIPA lysate, streptavidin beads with 50 pmol probe, 60 min 4 C, label: 3'-biotin.
A further data set deals with YBX1 (Homo sapiens) (UniProt P67809). Description: EMSA. Conditions: 200 ng YBX1, 20 ng probe, EMSA: binding buffer (composition not given), 30 min room temperature, 6% native PAGE, commercial protein, label: biotin, probe letters rebuilt from the primers and the genome.

For at least one entry, the source does not settle the construct or the ends of the probe. For some of these results: A negative result means that nothing was seen under these conditions. For some of these results: Where cells or extracts were used, other partners may take part. For some of these results: The comparison behind a weaker result is the experiment's own reference, which may not be listed here. For some of these results: At least one verdict rests on a figure or table, not on a statement of the authors.

Turning to “AUGAUGAUGAAGAAGAAGAAGAAGAAGAAGAAGAAGAAGAAGAAGAAGAAGAAGAAGAAGAAGAAGAAGAAG [AR site 2 pull-down probe (probe-mut)]”, the binding result with NSUN2 (cell lysate, site 2 cytosines stated crucial for NSUN2 binding, protein in an …) is “binds more weakly”.

In the case of “CUGCUGCUGCAGCAGCAGCAGCAGCAGCAGCAGCAGCAGCAGCAGCAGCAGCAGCAGCAGCAGCAGCAGCAG [AR site 2 pull-down probe (probe-normal)]”, the binding result with NSUN2 (C4-2 lysate, protein in an extract) is “binds”. Regarding “GGGAGACUUUCCAGAAUCUGUUCCAGAGCGUGCGCGAAGUGAUCCAGAACCCGGGCCCCAGGCACCCAGAGGCCGCGAGCGCAGCACCUCCCGGCGCCAGUUUGCUGCUGCUGCAGCAGCAGCAGCAGCAGCAGCAGCAGCAGCAGCAGCAGCAGCAGCAGCAGCAGCAGCAGCAGCAGCAAGAGACUAGCCCCAGGCAGCAGCAGCAGCAGCAGGGUGAGGAUGGUUCUCCCCAAGCCCAUCGUAGAGGCCCCACAGGCUACCUGGUCCUGGAUGAGGAACAGCAACCUUCACAGCCGCAGUCGGCCCUGGAGUGCCACCCCGAGAGAGGUUGCGUCCCAGAGCCUGGAGCCGCCGUGGCCGCCAGCAAGGGGCUGCC [AR site 2 probe, m5C-modified]”, the binding result with YBX1 (Homo sapiens) (m5C at clustered cytosines (enzymatic, NSUN2 + SAM; exact positions not given)) is “binds”. For the sequence “GGGAGACUUUCCAGAAUCUGUUCCAGAGCGUGCGCGAAGUGAUCCAGAACCCGGGCCCCAGGCACCCAGAGGCCGCGAGCGCAGCACCUCCCGGCGCCAGUUUGCUGCUGCUGCAGCAGCAGCAGCAGCAGCAGCAGCAGCAGCAGCAGCAGCAGCAGCAGCAGCAGCAGCAGCAGCAGCAAGAGACUAGCCCCAGGCAGCAGCAGCAGCAGCAGGGUGAGGAUGGUUCUCCCCAAGCCCAUCGUAGAGGCCCCACAGGCUACCUGGUCCUGGAUGAGGAACAGCAACCUUCACAGCCGCAGUCGGCCCUGGAGUGCCACCCCGAGAGAGGUUGCGUCCCAGAGCCUGGAGCCGCCGUGGCCGCCAGCAAGGGGCUGCC [AR site 2 probe, unmodified]”, the binding result in the data set with YBX1 (Homo sapiens) is reported as “no binding”.
